# From paper PMC8384837
# Where a chain is given by its changes, count along the chain named. The list shows a part of the results. For some of these results: At the low end of the ranking the order means little. For some of these results: The source does not settle which construct or isoform was used.
# Experiments:
# Conditions in all cases: yeast three-hybrid, YBZ-1, SC-Leu-His + 0.5 mM 3-AT, 4 days
# [1] = biological target: T1, PUM1 PUF domain R1-QFR R2-VFQ R7-NPG S863Q + R864F + Q867R + N899V + Y900F + S1079N + N1080P + E1083G (UniProt Q14671)
# T1 sequence: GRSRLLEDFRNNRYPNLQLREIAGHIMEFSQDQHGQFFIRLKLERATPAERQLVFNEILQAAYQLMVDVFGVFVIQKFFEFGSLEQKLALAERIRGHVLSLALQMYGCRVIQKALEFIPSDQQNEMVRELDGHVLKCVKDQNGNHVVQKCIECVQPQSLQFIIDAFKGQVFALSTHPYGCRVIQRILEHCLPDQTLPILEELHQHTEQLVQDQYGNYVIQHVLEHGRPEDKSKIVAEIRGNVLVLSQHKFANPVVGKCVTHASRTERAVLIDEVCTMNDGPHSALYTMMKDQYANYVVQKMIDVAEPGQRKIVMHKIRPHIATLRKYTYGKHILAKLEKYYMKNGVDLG
# [2] = biological target: T2, PUM1 PUF domain R5-PHQ R6-SWD C1007P + R1008H + N1043S + Y1044W + Q1047D (UniProt Q14671)
# T2 sequence: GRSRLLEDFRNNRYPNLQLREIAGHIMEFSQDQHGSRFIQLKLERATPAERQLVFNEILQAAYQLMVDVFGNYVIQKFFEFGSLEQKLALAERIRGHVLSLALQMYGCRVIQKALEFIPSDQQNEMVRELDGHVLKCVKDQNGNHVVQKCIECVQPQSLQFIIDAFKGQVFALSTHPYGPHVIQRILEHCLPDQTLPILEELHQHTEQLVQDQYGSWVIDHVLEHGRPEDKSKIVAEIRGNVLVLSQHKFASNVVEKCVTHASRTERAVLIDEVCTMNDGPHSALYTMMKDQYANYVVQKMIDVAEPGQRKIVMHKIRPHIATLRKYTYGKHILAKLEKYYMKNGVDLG
# [3] = biological target: T3, PUM1 PUF domain R6-SWD R7-NPG N1043S + Y1044W + Q1047D + S1079N + N1080P + E1083G (Homo sapiens) (UniProt Q14671)
# T3 sequence: T2 sequence with P180C, H181R, S252N, N253P, E256G
# [4] = biological target: T4, PUM1 PUF domain R3-THE R4-TFR R7-NPG C935T + R936H + Q939E + N971T + H972F + Q975R + S1079N + N1080P + E1083G (UniProt Q14671)
# T4 sequence: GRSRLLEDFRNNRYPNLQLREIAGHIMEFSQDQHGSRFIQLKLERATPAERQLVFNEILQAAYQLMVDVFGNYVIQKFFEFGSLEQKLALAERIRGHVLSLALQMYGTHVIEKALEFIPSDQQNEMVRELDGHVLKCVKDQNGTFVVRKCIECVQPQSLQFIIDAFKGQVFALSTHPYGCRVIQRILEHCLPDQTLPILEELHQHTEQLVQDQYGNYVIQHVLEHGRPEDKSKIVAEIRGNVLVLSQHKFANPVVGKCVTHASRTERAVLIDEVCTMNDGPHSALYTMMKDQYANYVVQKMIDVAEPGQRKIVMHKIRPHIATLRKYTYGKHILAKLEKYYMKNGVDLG
Sequence,binding signal (log2 enrichment (interaction score)) [1],binding signal (log2 enrichment (interaction score)) [2],binding signal (log2 enrichment (interaction score)) [3],binding signal (log2 enrichment (interaction score)) [4]
GGCUAGAACUAGUGGAUCCCCCGGCGCCCGGCGGCUCGAGCCCGGGUAAGAAUAAGGAGUCUGCAUGCCGCCGGGCGCCAUGCCUGCAGGUCGACUCUAGAAAACAUG,-5.26,-7.5,-0.51,–
GGCUAGAACUAGUGGAUCCCCCGGCGCCCGGCGGCUCGAGCCCGGGUAAGUGUAGGUUGUCUGCAUGCCGCCGGGCGCCAUGCCUGCAGGUCGACUCUAGAAAACAUG,< -5.93,-7.07,-1.65,–
GGCUAGAACUAGUGGAUCCCCCGGCGCCCGGCGGCUCGAGCCCGGGUAAGUGUUAAGAGUCUGCAUGCCGCCGGGCGCCAUGCCUGCAGGUCGACUCUAGAAAACAUG,-5.88,-7.59,–,–
GGCUAGAACUAGUGGAUCCCCCGGCGCCCGGCGGCUCGAGCCCGGGUAAGUUGUACUUGUCUGCAUGCCGCCGGGCGCCAUGCCUGCAGGUCGACUCUAGAAAACAUG,-6.42,-7.74,–,–
GGCUAGAACUAGUGGAUCCCCCGGCGCCCGGCGGCUCGAGCCCGGGUAAGGUUAAAUAGUCUGCAUGCCGCCGGGCGCCAUGCCUGCAGGUCGACUCUAGAAAACAUG,-6.83,-8.62,–,–
GGCUAGAACUAGUGGAUCCCCCGGCGCCCGGCGGCUCGAGCCCGGGUAAGUACAGAUAGUCUGCAUGCCGCCGGGCGCCAUGCCUGCAGGUCGACUCUAGAAAACAUG,-4.61,< -8.09,–,–
GGCUAGAACUAGUGGAUCCCCCGGCGCCCGGCGGCUCGAGCCCGGGUAAGAUGAAAAAGUCUGCAUGCCGCCGGGCGCCAUGCCUGCAGGUCGACUCUAGAAAACAUG,-5.56,< -7.77,–,–
GGCUAGAACUAGUGGAUCCCCCGGCGCCCGGCGGCUCGAGCCCGGGUAAGUGGAACACGUCUGCAUGCCGCCGGGCGCCAUGCCUGCAGGUCGACUCUAGAAAACAUG,-5.81,-7.26,–,–
GGCUAGAACUAGUGGAUCCCCCGGCGCCCGGCGGCUCGAGCCCGGGUAAGUCUACGCCGUCUGCAUGCCGCCGGGCGCCAUGCCUGCAGGUCGACUCUAGAAAACAUG,< -5.7,–,–,-2.22
GGCUAGAACUAGUGGAUCCCCCGGCGCCCGGCGGCUCGAGCCCGGGUAAGUUUAAAGCGUCUGCAUGCCGCCGGGCGCCAUGCCUGCAGGUCGACUCUAGAAAACAUG,-3.15,< -8.41,–,–
GGCUAGAACUAGUGGAUCCCCCGGCGCCCGGCGGCUCGAGCCCGGGUAAGUAUAAACCGUCUGCAUGCCGCCGGGCGCCAUGCCUGCAGGUCGACUCUAGAAAACAUG,-6.37,-6.57,–,–
GGCUAGAACUAGUGGAUCCCCCGGCGCCCGGCGGCUCGAGCCCGGGUAAGCGGAAGUAGUCUGCAUGCCGCCGGGCGCCAUGCCUGCAGGUCGACUCUAGAAAACAUG,-5.61,< -7.1,–,–
GGCUAGAACUAGUGGAUCCCCCGGCGCCCGGCGGCUCGAGCCCGGGUAAGGUGAAACUGUCUGCAUGCCGCCGGGCGCCAUGCCUGCAGGUCGACUCUAGAAAACAUG,< -6.21,-6.94,–,–
GGCUAGAACUAGUGGAUCCCCCGGCGCCCGGCGGCUCGAGCCCGGGUAAGUCGACAUAGUCUGCAUGCCGCCGGGCGCCAUGCCUGCAGGUCGACUCUAGAAAACAUG,-5.62,-6.82,–,–
GGCUAGAACUAGUGGAUCCCCCGGCGCCCGGCGGCUCGAGCCCGGGUAAGUUGUCACAGUCUGCAUGCCGCCGGGCGCCAUGCCUGCAGGUCGACUCUAGAAAACAUG,-6.04,< -7.91,–,–
GGCUAGAACUAGUGGAUCCCCCGGCGCCCGGCGGCUCGAGCCCGGGUAAGUUAGAAUAGUCUGCAUGCCGCCGGGCGCCAUGCCUGCAGGUCGACUCUAGAAAACAUG,< -5.02,< -6.85,–,-2.58
GGCUAGAACUAGUGGAUCCCCCGGCGCCCGGCGGCUCGAGCCCGGGUAAGCUGGAAUAGUCUGCAUGCCGCCGGGCGCCAUGCCUGCAGGUCGACUCUAGAAAACAUG,-6.18,< -7.95,–,–
GGCUAGAACUAGUGGAUCCCCCGGCGCCCGGCGGCUCGAGCCCGGGUAAGUUGACGGAGUCUGCAUGCCGCCGGGCGCCAUGCCUGCAGGUCGACUCUAGAAAACAUG,-2.96,-7.73,–,–
GGCUAGAACUAGUGGAUCCCCCGGCGCCCGGCGGCUCGAGCCCGGGUAAGAAGACAACGUCUGCAUGCCGCCGGGCGCCAUGCCUGCAGGUCGACUCUAGAAAACAUG,< -6.09,< -7.3,–,–
GGCUAGAACUAGUGGAUCCCCCGGCGCCCGGCGGCUCGAGCCCGGGUAAGCUGAAAUUGUCUGCAUGCCGCCGGGCGCCAUGCCUGCAGGUCGACUCUAGAAAACAUG,< -5.76,-6.8,–,–

# Reformatted: results already given
Sequence	binding signal (log2 enrichment (interaction score)) [1]	binding signal (log2 enrichment (interaction score)) [2]	binding signal (log2 enrichment (interaction score)) [3]	binding signal (log2 enrichment (interaction score)) [4]
GGCUAGAACUAGUGGAUCCCCCGGCGCCCGGCGGCUCGAGCCCGGGUAAGUUGACGGAGUCUGCAUGCCGCCGGGCGCCAUGCCUGCAGGUCGACUCUAGAAAACAUG	-2.96	-7.73	–	–
GGCUAGAACUAGUGGAUCCCCCGGCGCCCGGCGGCUCGAGCCCGGGUAAGAAGACAACGUCUGCAUGCCGCCGGGCGCCAUGCCUGCAGGUCGACUCUAGAAAACAUG	< -6.09	< -7.3	–	–
